# Test results reported in patent US20250129166A1.
# Amino acid sequences for entries named in this document (tags omitted). A change or cut given only in a name is not applied to a line headed by its entry.
# UniProt Q14242: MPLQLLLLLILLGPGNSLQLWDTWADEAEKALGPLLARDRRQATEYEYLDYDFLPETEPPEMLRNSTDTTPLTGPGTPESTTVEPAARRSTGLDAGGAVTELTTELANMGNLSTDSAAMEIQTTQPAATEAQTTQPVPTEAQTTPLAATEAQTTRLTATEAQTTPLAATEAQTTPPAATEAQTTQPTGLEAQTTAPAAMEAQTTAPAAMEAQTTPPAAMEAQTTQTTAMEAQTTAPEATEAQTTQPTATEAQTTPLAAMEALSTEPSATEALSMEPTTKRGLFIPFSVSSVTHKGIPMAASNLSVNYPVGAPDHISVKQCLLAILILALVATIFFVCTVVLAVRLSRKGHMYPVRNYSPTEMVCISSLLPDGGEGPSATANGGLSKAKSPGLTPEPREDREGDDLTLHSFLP
# These are yes or no findings as the source states them, for the method shown. Some results given as binding are weak or reduced against the parent protein; the word gives no strength. Tags and fused reporters may be left off the sequences shown.
# Target: T1, human VISTA on cells (endogenous on human monocytes and AML3 cells; ectopic full-length on 293T cells) (human) (UniProt Q9H7M9)
# T1 sequence (looked up): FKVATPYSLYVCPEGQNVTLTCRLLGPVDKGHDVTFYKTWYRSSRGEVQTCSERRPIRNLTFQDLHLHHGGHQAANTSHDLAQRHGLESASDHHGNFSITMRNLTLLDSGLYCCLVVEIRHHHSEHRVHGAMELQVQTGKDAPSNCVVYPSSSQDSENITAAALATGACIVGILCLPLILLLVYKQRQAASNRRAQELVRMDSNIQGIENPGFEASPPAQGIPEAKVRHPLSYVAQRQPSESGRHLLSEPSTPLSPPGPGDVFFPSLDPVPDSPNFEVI
# Assay: cell-based assay, PSGL-1 on 293T cells expressing VISTA, acidic pH
binder,measurement,value
"QATEYEYLDYDFLPETEPP (Fc fusion, UniProt Q14242 42-60, looked up, not shown: a dimerising Fc or GST, sulfotyrosine and siayl lewis X carbohydrate post-translational modifications) [human PSGL1 19-mer-huFc (amino-terminal 19 amino acids of mature PSGL1 fused to human Fc)]",binding,binds
